Some values come without a unit; they compare only within their column.
Assays:
[1] = Serum ethanolamine phospholipid levels in human cohorts (dementia severity, post-mortem pathology, age) by flow-injection MS/MS
[2] = Serum ethanolamine phospholipid ratios to PtdEt 16:0/18:0 (M01) in human cohorts
[3] = serum, females, post mortem SDAT
[4] = serum, females, post mortem control

CCCCC/C=C\C/C=C\C/C=C\C/C=C\CCCCCC(=O)OC(COCCCCCCCCCCCCCCCC)COP(=O)(O)OCCN (centres unmarked) [Metabolite M08, Plasmanyl 16:0/22:4]
Ratio of serum levels ([1]; AD, All to CN, Male): 0.759
Ratio of serum levels ([1]; ADAS 5-19 to CN, Male): 0.806
Ratio of serum levels ([1]; ADAS 20-39 to 5-19, Male): 0.936
Ratio of serum levels ([1]; ADAS 20-39 to CN, Male): 0.755
Ratio of serum levels ([1]; ADAS 40-70 to 5-19, Male): 0.780
Ratio of serum levels ([1]; ADAS 40-70 to 20-39, Male): 0.833
Ratio of serum levels ([1]; ADAS 40-70 to CN, Male): 0.629
Serum level, Mean ([1]; Cognitive Normal, Female): 0.006
Average serum level, Mean ([1]; Cognitive Normal, Male): 0.007
Serum level, Mean ([1]; Post Mortem Ctl, Male): 0.003
Serum level, Mean ([1]; Post Mortem SDAT Male): 0.002
Ratio of serum levels ([1]; Post mortem SDAT vs Control, Male): 0.410
Serum level, Mean ([1]; SDAT, ADAS 5-19, Female): 0.005
Average serum level, Mean ([1]; SDAT, ADAS 5-19, Male): 0.006
Serum level, Mean ([1]; SDAT, ADAS 20-39, Female): 0.006
Average serum level, Mean ([1]; SDAT, ADAS 20-39, Male): 0.005
Serum level, Mean ([1]; SDAT, ADAS 40-70, Female): 0.005
Average serum level, Mean ([1]; SDAT, ADAS 40-70, Male): 0.004
Serum level, Mean ([1]; SDAT_all, Female): 0.005
Average serum level, Mean ([1]; SDAT_all, Male): 0.005
Ratio, ADAS 5-19 to CN, Female ([1]; serum level ratio, females, ADAS 5-19 vs CN): 0.849
Ratio, ADAS 20-39 to 5-19, Female ([1]; serum level ratio, females, ADAS 20-39 vs ADAS 5-19): 1.046
Ratio, ADAS 20-39 to CN, Female ([1]; serum level ratio, females, ADAS 20-39 vs CN): 0.889
Ratio, ADAS 40-70 to 5-19, Female ([1]; serum level ratio, females, ADAS 40-70 vs ADAS 5-19): 0.850
Ratio, ADAS 40-70 to 20-39, Female ([1]; serum level ratio, females, ADAS 40-70 vs ADAS 20-39): 0.812
Ratio, ADAS 40-70 to CN, Female ([1]; serum level ratio, females, ADAS 40-70 vs CN): 0.722
Ratio, 50-59 vs. 40-49, Female ([1]; serum level ratio, females, age 50-59 vs 40-49): 0.721
Ratio, 60-69 vs. 40-49, Female ([1]; serum level ratio, females, age 60-69 vs 40-49): 0.569
Ratio, 70+ vs. 40-49, Female ([1]; serum level ratio, females, age 70+ vs 40-49): 0.640
Ratio, AD, All to CN, Female ([1]; serum level ratio, females, all AD vs cognitively normal): 0.821
Ratio, Autopsy AD vs. Control, Female ([1]; serum level ratio, females, autopsy AD vs control): 0.684
Ratio, 50-59 vs. 40-49, Male ([1]; serum level ratio, males, age 50-59 vs 40-49): 1.031
Ratio, 60-69 vs. 40-49, Male ([1]; serum level ratio, males, age 60-69 vs 40-49): 1.014
Ratio, 70+ vs. 40-49, Male ([1]; serum level ratio, males, age 70+ vs 40-49): 0.907
Mean serum level, Age Ctl, 30-39, Female ([1]; serum, females, age 30-39): 0.008
Mean serum level, Age Ctl, 40-49, Female ([1]; serum, females, age 40-49): 0.010
Mean serum level, Age Ctl, 50-59, Female ([1]; serum, females, age 50-59): 0.007
Mean serum level, Age Ctl, 60-69, Female ([1]; serum, females, age 60-69): 0.006
Mean serum level, Age Ctl, 70+, Female ([1]; serum, females, age 70+): 0.006
Mean serum level, Post Mortem SDAT, Female [1, 3]: 0.001
Mean serum level, Post Mortem Ctl, Female [1, 4]: 0.003
Mean serum level, Age Ctl, 30-39, Male ([1]; serum, males, age 30-39): 0.010
Mean serum level, Age Ctl, 40-49, Male ([1]; serum, males, age 40-49): 0.007
Mean serum level, Age Ctl, 50-59, Male ([1]; serum, males, age 50-59): 0.007
Mean serum level, Age Ctl, 60-69, Male ([1]; serum, males, age 60-69): 0.007
Mean serum level, Age Ctl, 70+, Male ([1]; serum, males, age 70+): 0.006
Ratio of ethanolamine phospholipid ratios to M01 between cohorts ([2]; AD, All to CN, Male): 0.713
Ratio of ethanolamine phospholipid ratios to M01 between cohorts ([2]; ADAS 5-19 to CN, Male): 0.747
Ratio of ethanolamine phospholipid ratios to M01 between cohorts ([2]; ADAS 20-39 to CN, Male): 0.727
Ratio of ethanolamine phospholipid ratios to M01 between cohorts ([2]; ADAS 40-70 to CN, Male): 0.602
Average serum ethanolamine phospholipid ratio to M01, Mean ([2]; Cognitive Normal, Male, serum): 0.062
Average serum ethanolamine phospholipid ratio to M01, Mean ([2]; SDAT, ADAS 5-19, Male, serum): 0.047
Average serum ethanolamine phospholipid ratio to M01, Mean ([2]; SDAT, ADAS 20-39, Male, serum): 0.045
Average serum ethanolamine phospholipid ratio to M01, Mean ([2]; SDAT, ADAS 40-70, Male, serum): 0.038
Average serum ethanolamine phospholipid ratio to M01, Mean ([2]; SDAT_all, Male, serum): 0.044
Ethanolamine Phospholipid Ratio to M01, Mean, Age Ctl, 30-39, Female ([2]; human serum, females aged 30-39): 0.079
Ethanolamine Phospholipid Ratio to M01, Mean, Age Ctl, 40-49, Female ([2]; human serum, females aged 40-49): 0.089
Ethanolamine Phospholipid Ratio to M01, Mean, Age Ctl, 50-59, Female ([2]; human serum, females aged 50-59): 0.070
Ratio of Ethanolamine Phospholipid Ratio to M01, 50-59 vs. 40-49, Female ([2]; human serum, females aged 50-59 vs. females aged 40-49): 0.783
Ethanolamine Phospholipid Ratio to M01, Mean, Age Ctl, 60-69, Female ([2]; human serum, females aged 60-69): 0.047
Ratio of Ethanolamine Phospholipid Ratio to M01, 60-69 vs. 40-49, Female ([2]; human serum, females aged 60-69 vs. females aged 40-49): 0.533
Ethanolamine Phospholipid Ratio to M01, Mean, Age Ctl, 70+_Female ([2]; human serum, females aged 70+): 0.052
Ratio of Ethanolamine Phospholipid Ratio to M01, 70+ vs. 40-49, Female ([2]; human serum, females aged 70+ vs. females aged 40-49): 0.583
Ratio of Ethanolamine Phospholipid Ratio to M01, 50-59 vs. 40-49, Male ([2]; human serum, males aged 50-59 vs. males aged 40-49): 1.053
Ratio of Ethanolamine Phospholipid Ratio to M01, 60-69 vs. 40-49, Male ([2]; human serum, males aged 60-69 vs. males aged 40-49): 0.847
Ratio of Ethanolamine Phospholipid Ratio to M01, 70+ vs. 40-49, Male ([2]; human serum, males aged 70+ vs. males aged 40-49): 0.765
Ratio of ethanolamine phospholipid ratio to M01, ADAS 5-19 to CN, Female ([2]; serum, females, ADAS 5-19 vs cognitive normal): 0.934
Ratio of ethanolamine phospholipid ratio to M01, ADAS 20-39 to 5-19, Female ([2]; serum, females, ADAS 20-39 vs ADAS 5-19): 1.010
Ratio of ethanolamine phospholipid ratio to M01, ADAS 20-39 to CN, Female ([2]; serum, females, ADAS 20-39 vs cognitive normal): 0.943
Ratio of ethanolamine phospholipid ratio to M01, ADAS 40-70 to 5-19, Female ([2]; serum, females, ADAS 40-70 vs ADAS 5-19): 0.787
Ratio of ethanolamine phospholipid ratio to M01, ADAS 40-70 to 20-39, Female ([2]; serum, females, ADAS 40-70 vs ADAS 20-39): 0.780
Ratio of ethanolamine phospholipid ratio to M01, ADAS 40-70 to CN, Female ([2]; serum, females, ADAS 40-70 vs cognitive normal): 0.735
Ethanolamine phospholipid ratio to M01, Mean, SDAT, ADAS 5-19, Female ([2]; serum, females, SDAT ADAS 5-19): 0.050
Ethanolamine phospholipid ratio to M01, Mean, SDAT, ADAS 20-39, Female ([2]; serum, females, SDAT ADAS 20-39): 0.051
Ethanolamine phospholipid ratio to M01, Mean, SDAT, ADAS 40-70, Female ([2]; serum, females, SDAT ADAS 40-70): 0.039
Ratio of ethanolamine phospholipid ratio to M01, AD, All to CN, Female ([2]; serum, females, all AD vs cognitive normal): 0.869
Ethanolamine phospholipid ratio to M01, Mean, SDAT_all Female ([2]; serum, females, all SDAT): 0.047
Ratio of ethanolamine phospholipid ratio to M01, Autopsy AD vs. Control, Female ([2]; serum, females, autopsy AD vs post mortem control): 0.981
Ethanolamine phospholipid ratio to M01, Mean, Cognitive Normal, Female ([2]; serum, females, cognitive normal): 0.054
Ethanolamine phospholipid ratio to M01, Mean, Post Mortem SDAT Female [2, 3]: 0.017
Ethanolamine phospholipid ratio to M01, Mean, Post Mortem Ctl, Female [2, 4]: 0.017
Ratio of ethanolamine phospholipid ratio to M01, ADAS 20-39 to 5-19, Male ([2]; serum, males, SDAT ADAS 20-39 vs ADAS 5-19): 0.973
Ratio of ethanolamine phospholipid ratio to M01, ADAS 40-70 to 5-19, Male ([2]; serum, males, SDAT ADAS 40-70 vs ADAS 5-19): 0.806
Ratio of ethanolamine phospholipid ratio to M01, ADAS 40-70 to 20-39, Male ([2]; serum, males, SDAT ADAS 40-70 vs ADAS 20-39): 0.828
Ethanolamine phospholipid ratio to M01, Mean, Age Ctl, 30-39, Male ([2]; serum, males, age control 30-39): 0.079
Ethanolamine phospholipid ratio to M01, Mean, Age Ctl, 40-49, Male ([2]; serum, males, age control 40-49): 0.064
Ethanolamine phospholipid ratio to M01, Mean, Age Ctl, 50-59, Male ([2]; serum, males, age control 50-59): 0.067
Ethanolamine phospholipid ratio to M01, Mean, Age Ctl, 60-69, Male ([2]; serum, males, age control 60-69): 0.054
Ethanolamine phospholipid ratio to M01, Mean, Age Ctl, 70+_Male ([2]; serum, males, age control 70+): 0.049
Ethanolamine phospholipid ratio to M01, Mean, Post Mortem SDAT Male ([2]; serum, males, post mortem SDAT): 0.012
Ratio of ethanolamine phospholipid ratio to M01, SDAT vs Control (post mortem, males) ([2]; serum, males, post mortem SDAT vs post mortem control): 0.511
Ethanolamine phospholipid ratio to M01, Mean, Post Mortem Ctl, Male ([2]; serum, males, post mortem control): 0.024

From US9517222B2, “Method for the treatment of senile dementia of the Alzheimer's type” (Phenomenome Discoveries Inc., priority 2007, dated 2016)
